These are yes or no findings as the source states them, for the method shown. Binding seen in cells or lysates may run through a third protein. Some entries that bind do so weakly or less than the wild type.
Target: Raptor, endogenous in mouse hippocampus (mouse (endogenous in hippocampus)) (UniProt Q8K4Q0)
Assay: co-IP; hippocampal lysate of P301S mice; 2 mg protein with 4 ug primary antibody overnight at 4 °C, Protein A + G agarose 4 h, three washes, Western blot

Amino acid sequences for entries named in this document (tags omitted).
UniProt Q8K4Q0: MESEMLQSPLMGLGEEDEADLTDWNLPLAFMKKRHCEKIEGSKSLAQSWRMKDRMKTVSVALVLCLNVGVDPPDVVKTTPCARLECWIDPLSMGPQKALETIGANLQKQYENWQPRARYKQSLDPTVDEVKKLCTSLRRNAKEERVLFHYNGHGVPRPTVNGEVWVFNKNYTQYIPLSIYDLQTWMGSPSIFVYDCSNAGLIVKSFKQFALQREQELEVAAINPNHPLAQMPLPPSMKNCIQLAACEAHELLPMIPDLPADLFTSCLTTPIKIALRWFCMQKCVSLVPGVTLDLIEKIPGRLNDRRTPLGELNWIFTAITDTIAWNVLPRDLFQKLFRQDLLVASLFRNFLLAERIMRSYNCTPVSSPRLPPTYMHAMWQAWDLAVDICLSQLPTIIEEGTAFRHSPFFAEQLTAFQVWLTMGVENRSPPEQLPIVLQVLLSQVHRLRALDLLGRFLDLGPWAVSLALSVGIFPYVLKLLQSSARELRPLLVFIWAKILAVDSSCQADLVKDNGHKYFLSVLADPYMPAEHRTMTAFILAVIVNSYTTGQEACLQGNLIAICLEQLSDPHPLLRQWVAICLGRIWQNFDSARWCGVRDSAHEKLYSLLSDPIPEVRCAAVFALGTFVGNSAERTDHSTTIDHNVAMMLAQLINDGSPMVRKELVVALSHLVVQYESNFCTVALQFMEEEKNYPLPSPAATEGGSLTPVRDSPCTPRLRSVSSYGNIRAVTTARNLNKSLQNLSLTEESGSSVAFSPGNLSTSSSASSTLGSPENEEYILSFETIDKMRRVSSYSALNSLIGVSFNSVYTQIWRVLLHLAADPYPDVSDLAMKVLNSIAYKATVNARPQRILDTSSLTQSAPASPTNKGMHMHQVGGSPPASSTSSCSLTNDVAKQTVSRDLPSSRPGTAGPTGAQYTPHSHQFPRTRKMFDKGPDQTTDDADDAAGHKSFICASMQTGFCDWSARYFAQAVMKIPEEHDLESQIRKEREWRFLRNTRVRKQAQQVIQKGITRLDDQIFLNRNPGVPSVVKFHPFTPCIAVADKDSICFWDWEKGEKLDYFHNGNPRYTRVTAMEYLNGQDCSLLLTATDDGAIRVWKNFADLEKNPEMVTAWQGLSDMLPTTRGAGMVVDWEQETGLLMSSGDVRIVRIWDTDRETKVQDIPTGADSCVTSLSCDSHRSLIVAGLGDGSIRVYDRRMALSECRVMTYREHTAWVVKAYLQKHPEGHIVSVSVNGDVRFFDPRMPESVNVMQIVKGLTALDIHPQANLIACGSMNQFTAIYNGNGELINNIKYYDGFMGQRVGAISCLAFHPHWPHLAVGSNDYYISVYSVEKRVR
UniProt P70398: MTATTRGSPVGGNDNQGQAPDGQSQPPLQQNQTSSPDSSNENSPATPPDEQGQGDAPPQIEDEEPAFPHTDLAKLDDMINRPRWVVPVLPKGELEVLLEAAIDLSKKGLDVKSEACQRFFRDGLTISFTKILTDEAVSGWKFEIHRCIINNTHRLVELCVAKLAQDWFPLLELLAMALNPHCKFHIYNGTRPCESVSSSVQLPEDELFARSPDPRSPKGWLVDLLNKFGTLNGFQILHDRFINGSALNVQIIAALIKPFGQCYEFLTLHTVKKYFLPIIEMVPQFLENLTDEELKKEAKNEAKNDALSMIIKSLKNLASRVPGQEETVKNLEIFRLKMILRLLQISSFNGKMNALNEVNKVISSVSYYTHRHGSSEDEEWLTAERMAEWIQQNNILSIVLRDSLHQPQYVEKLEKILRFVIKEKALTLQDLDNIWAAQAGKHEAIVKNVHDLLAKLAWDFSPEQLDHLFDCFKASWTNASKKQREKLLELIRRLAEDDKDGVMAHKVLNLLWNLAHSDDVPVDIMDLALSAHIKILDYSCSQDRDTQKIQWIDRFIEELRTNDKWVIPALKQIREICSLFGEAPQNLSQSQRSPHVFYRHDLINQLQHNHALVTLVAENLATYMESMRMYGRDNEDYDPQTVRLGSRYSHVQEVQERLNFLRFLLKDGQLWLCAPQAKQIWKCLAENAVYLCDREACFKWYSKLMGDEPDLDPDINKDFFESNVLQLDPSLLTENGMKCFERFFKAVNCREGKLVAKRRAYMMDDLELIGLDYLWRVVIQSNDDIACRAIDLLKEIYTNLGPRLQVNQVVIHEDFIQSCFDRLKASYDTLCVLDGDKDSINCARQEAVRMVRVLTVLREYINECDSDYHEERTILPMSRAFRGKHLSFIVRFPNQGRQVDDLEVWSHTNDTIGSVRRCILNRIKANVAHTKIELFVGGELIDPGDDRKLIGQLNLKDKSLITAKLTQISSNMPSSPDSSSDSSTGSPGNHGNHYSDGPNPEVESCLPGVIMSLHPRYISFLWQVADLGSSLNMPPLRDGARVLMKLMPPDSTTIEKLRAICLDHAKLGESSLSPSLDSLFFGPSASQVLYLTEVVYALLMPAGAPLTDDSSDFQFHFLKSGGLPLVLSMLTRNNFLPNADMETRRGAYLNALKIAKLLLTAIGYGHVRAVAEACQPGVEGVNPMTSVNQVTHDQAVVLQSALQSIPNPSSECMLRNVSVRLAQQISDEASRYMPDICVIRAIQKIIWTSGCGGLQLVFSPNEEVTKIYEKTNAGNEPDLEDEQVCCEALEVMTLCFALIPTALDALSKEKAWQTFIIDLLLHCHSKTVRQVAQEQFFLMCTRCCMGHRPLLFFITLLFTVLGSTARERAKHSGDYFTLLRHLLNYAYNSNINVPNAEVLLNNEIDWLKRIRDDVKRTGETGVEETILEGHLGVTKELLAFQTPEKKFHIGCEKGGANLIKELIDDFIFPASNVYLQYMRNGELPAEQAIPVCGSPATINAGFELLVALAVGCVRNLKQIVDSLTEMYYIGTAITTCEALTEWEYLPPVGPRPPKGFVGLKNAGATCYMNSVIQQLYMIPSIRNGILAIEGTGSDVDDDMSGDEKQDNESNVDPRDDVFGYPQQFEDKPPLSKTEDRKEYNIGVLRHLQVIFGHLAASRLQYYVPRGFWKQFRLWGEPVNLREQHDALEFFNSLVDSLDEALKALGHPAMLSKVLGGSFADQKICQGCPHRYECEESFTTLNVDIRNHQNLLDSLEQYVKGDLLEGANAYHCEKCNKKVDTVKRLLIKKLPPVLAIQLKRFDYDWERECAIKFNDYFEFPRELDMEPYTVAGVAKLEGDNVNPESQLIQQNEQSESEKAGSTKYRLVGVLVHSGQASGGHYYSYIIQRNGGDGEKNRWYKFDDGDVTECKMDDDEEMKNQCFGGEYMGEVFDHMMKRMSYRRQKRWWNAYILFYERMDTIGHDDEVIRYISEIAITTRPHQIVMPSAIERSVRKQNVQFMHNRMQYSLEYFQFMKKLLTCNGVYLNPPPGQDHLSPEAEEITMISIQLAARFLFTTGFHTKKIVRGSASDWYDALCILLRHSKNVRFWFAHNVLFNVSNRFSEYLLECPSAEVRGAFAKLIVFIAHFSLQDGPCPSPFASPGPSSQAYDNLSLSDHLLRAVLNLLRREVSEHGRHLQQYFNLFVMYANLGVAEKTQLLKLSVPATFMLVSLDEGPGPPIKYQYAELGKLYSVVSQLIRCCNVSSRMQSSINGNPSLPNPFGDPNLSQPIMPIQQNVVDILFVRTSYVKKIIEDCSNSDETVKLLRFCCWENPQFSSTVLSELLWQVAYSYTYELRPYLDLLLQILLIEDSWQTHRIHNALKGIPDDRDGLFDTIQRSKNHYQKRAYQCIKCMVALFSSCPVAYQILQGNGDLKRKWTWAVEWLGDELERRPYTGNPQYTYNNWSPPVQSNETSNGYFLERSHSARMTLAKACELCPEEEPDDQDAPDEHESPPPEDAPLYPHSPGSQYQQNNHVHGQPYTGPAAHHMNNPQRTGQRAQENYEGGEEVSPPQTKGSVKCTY

USP9X (ubiquitin specific peptidase 9, X-linked), endogenous in mouse hippocampus (from UniProt P70398 1-2559) (enzyme)
binding: binds

From article PMC11515493
